EP1120414A1, “DISUBSTITUTED MALEIMIDE COMPOUNDS AND MEDICINAL UTILIZATION THEREOF” (Japan Tobacco Inc., priority 1998, dated 2000)
At least one compound was matched to its structure with a doubt left.

Protein sequences, listed by entry. Tags and fused reporters are not part of them. Chains listed by the source or under a name are the forms on record and can include a tag or linker.
UniProt P05771, other isoform, or with tags, fused parts or gaps: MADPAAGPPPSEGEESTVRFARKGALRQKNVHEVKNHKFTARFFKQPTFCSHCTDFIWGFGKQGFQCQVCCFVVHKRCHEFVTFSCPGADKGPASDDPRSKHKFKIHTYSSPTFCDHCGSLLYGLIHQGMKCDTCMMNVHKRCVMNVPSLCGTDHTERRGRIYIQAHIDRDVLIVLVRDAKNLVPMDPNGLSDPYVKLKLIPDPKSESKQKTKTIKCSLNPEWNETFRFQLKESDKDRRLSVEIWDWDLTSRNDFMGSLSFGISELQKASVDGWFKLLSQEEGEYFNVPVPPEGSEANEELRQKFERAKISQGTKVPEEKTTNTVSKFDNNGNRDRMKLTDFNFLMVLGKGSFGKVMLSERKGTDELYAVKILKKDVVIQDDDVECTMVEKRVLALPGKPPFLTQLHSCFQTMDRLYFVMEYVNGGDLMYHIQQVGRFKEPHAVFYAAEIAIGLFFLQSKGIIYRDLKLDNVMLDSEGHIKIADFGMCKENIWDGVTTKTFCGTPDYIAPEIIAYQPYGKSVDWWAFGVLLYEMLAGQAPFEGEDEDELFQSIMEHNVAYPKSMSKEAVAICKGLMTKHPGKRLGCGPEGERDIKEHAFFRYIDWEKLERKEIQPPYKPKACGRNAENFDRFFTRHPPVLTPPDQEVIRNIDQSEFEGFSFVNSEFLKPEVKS

Target: T1, PKC β II (Homo sapiens, UniProt P05771)
T1 construct: purchased CALBIOCHEM
Test: PKC enzyme assay (BIOTRAK Protein kinase C enzyme assay system, 32P-ATP phosphorylation of peptide […])
Format: biochemical
Conditions: IC50 PKC α / IC50 PKC β II
Text: The method for determining the PKC inhibitory activity of the compound of the present invention is explained in the following. Inasmuch as PKCβII is present in greater number in intravascular cells than PKCβI, PKCβII was mainly used here to test the enzyme activity.
As the reagent for enzyme assay, BIOTRAK Protein kinase C enzyme assay system (hereinafter the system, Amersham), and as the PKC enzyme standard product, Protein Kinase C, Human Recombinant (CALBIOCHEM) were purchased and used in the assay. […] The reaction terminator (300 mM orthophosphoric acid containing carmosine red) attached to the system was added in the amount equivalent to the substrate mixture to end the reaction, and the reaction mixture was spotted on a phosphocellulose paper (Whatman, P-81), washed twice with 75 mM orthophosphoric acid and assayed for radioactivity by BAS2000 (Fuji film).
The ratio of the radioactivity of the addition of the test substance to the addition of DMSO was determined, and IC50 was calculated from inhibition at each concentration.

O=C1NC(=O)C(c2cn(CCCN3CCC(N4CCCC4)CC3)c3ccccc23)=C1Nc1ccccc1 [Example 2-49, 3-[1-(3-(4-pyrrolidinylpiperidino)propyl}-1H-indol-3-yl]-4-(phenylamino)-1H-pyrrole-2,5-dione]
Ratio α/β: 90
